Assay results from PMC12442679.
No constants are given. Whether binding was seen depends on the method and setting. Binding seen in cells or lysates may run through a third protein. Some binding calls cover weakened binding; strength is not graded here.

Protein sequences, listed by entry. Tags and fused reporters are not part of them.
UniProt Q9TSV5: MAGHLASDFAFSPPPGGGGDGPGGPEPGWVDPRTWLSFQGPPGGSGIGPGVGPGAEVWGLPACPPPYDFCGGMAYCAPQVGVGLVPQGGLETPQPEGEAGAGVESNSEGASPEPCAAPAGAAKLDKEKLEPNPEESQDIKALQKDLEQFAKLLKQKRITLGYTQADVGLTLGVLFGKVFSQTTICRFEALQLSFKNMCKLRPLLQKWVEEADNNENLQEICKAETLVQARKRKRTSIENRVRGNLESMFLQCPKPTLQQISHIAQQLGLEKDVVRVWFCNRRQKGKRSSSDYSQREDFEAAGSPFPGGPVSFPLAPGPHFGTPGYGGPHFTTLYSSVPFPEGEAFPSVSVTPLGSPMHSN

Molecular target: T1, FOXH1 (FAST1, forkhead activin signal transducer 1) (pig (endogenous in pEPSCs)) (UniProt F1RSP3)
T1 sequence: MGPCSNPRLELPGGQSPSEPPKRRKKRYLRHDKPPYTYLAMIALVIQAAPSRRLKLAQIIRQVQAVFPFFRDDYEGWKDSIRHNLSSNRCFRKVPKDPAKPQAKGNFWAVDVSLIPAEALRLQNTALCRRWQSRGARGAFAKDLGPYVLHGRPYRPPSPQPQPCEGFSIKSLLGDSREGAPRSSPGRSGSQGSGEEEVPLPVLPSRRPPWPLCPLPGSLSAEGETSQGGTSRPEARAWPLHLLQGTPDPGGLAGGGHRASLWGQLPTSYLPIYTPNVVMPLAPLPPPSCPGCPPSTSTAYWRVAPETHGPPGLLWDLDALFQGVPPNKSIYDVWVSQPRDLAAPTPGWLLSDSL
Experiment: co-IP; FOXH1 in pEPSCs immunoprecipitated with Flag-conjugated agarose beads; Western blot for FOXH1 and POU5F1

binding: binds
Substance: POU5F1 (from UniProt Q9TSV5 1-360)
